Experimental data published in PMC6336817.
Results are given in words; binding and its absence hold for the method and conditions named. For some of these results: In cells and extracts the contact can be indirect. Some entries that bind do so weakly or less than the wild type.

By UniProt entry, the sequences of proteins in these tests, tags left out.
UniProt P84022: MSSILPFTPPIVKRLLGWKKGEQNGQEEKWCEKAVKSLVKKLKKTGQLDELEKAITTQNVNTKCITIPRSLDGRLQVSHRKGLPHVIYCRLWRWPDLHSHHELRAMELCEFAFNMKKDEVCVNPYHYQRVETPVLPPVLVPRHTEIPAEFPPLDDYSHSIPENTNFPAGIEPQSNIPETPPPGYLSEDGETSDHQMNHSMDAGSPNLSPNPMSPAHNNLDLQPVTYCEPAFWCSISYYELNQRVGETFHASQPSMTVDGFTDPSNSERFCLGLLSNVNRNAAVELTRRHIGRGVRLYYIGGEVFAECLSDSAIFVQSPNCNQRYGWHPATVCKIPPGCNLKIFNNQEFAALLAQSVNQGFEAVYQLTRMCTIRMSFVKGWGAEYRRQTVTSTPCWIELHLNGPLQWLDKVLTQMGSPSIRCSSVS
UniProt Q16665: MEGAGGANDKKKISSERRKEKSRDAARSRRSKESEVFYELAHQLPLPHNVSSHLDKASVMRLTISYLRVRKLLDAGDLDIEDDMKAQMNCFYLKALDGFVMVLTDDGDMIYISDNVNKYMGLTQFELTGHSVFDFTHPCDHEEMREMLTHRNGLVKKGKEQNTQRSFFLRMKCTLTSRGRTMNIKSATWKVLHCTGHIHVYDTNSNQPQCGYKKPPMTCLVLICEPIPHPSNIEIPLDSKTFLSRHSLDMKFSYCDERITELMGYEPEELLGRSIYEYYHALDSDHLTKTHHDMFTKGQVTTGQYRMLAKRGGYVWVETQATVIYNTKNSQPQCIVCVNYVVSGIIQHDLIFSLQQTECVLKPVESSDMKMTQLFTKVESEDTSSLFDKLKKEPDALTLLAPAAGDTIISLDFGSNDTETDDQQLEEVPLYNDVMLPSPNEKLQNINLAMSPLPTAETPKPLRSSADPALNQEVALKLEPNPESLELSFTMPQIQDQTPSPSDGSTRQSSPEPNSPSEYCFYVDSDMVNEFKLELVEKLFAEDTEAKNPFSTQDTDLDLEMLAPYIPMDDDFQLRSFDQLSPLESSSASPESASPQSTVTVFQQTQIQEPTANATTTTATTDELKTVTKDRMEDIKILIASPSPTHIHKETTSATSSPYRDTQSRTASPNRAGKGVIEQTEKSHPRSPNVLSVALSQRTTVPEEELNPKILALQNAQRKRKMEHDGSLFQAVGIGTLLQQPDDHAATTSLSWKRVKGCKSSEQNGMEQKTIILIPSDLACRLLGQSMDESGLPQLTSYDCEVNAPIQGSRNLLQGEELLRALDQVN
UniProt Q99814: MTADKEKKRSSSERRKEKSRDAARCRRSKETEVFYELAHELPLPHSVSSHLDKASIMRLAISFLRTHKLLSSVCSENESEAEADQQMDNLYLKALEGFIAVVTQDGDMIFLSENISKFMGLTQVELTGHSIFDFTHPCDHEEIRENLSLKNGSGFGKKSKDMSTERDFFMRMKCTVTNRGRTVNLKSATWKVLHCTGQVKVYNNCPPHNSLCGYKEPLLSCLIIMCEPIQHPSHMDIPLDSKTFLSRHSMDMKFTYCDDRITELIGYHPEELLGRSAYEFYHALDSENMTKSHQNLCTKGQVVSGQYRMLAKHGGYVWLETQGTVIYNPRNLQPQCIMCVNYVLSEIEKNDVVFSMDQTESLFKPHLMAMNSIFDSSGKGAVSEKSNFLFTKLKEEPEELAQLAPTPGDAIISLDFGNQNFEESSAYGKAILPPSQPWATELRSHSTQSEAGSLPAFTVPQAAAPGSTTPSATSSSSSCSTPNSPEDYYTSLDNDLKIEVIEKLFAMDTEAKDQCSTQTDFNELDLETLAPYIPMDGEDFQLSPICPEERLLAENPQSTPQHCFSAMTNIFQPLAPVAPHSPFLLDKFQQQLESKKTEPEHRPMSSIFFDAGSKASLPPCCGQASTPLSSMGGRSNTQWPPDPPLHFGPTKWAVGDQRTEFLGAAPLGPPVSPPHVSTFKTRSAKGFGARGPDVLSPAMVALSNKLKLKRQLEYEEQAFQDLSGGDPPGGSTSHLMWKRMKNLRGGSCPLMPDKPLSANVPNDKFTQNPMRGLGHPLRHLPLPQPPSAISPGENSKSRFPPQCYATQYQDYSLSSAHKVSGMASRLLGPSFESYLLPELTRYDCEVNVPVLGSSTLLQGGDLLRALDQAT

Assays:
ONECUT2 (human) = molecular target: T1, ONECUT2 (human) (UniProt O95948); assay: co-IP; ONECUT2 or HIF1α immunoprecipitated, western blot for the other protein; cells, buffers and conditions not told; no figure is cited
T1 sequence: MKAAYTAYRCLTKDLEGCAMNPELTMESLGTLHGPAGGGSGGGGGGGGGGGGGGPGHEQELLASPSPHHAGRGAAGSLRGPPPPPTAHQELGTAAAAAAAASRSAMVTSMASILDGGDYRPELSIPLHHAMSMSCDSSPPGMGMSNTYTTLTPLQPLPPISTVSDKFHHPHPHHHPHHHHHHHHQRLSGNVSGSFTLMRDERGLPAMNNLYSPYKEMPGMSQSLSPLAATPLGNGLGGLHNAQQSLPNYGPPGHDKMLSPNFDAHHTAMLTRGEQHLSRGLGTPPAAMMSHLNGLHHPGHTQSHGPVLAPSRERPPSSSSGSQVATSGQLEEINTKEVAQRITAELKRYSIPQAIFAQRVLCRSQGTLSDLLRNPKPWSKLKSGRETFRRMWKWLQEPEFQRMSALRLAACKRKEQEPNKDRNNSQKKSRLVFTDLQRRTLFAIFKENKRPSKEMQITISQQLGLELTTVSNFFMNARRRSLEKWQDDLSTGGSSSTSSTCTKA

[1] = molecular target: SMAD3 (human (endogenous in PC3)) (UniProt P84022); assay: ChIP-re-ChIP-Seq; formaldehyde cross-linked chromatin of PC3 cells under hypoxic conditions; complexes of the first immunoprecipitation eluted with 20 mM dithiothreitol at 37 °C, diluted 30~50 fold, second immunoprecipitation, sequencing; read out as peaks that overlap both single ChIP-Seq sets
[2] = molecular target: HIF1α (human (endogenous in PC3)) (UniProt Q16665); assay: co-IP; ONECUT2 or HIF1α immunoprecipitated, western blot for the other protein; cells, buffers and conditions not told; no figure is cited

Row | Molecule | binding (ONECUT2 (human)) | binding [1] | binding [2]
1 | HIF1α (from UniProt Q16665 1-826) | no binding | binds | 
2 | HIF2α (from UniProt Q99814 1-870) |  | no binding | 
3 | ONECUT2 (protein, UniProt O95948 1-504) MKAAYTAYRCLTKDLEGCAMNPELTMESLGTLHGPAGGGSGGGGGGGGGGGGGGPGHEQELLASPSPHHAGRGAAGSLRGPPPPPTAHQELGTAAAAAAAASRSAMVTSMASILDGGDYRPELSIPLHHAMSMSCDSSPPGMGMSNTYTTLTPLQPLPPISTVSDKFHHPHPHHHPHHHHHHHHQRLSGNVSGSFTLMRDERGLPAMNNLYSPYKEMPGMSQSLSPLAATPLGNGLGGLHNAQQSLPNYGPPGHDKMLSPNFDAHHTAMLTRGEQHLSRGLGTPPAAMMSHLNGLHHPGHTQSHGPVLAPSRERPPSSSSGSQVATSGQLEEINTKEVAQRITAELKRYSIPQAIFAQRVLCRSQGTLSDLLRNPKPWSKLKSGRETFRRMWKWLQEPEFQRMSALRLAACKRKEQEPNKDRNNSQKKSRLVFTDLQRRTLFAIFKENKRPSKEMQITISQQLGLELTTVSNFFMNARRRSLEKWQDDLSTGGSSSTSSTCTKA |  |  | no binding
